# Experimental data from the supplement of paper PMC8728848.
# The list shows a part of the results.
# Columns and labels:
# Assay in all cases: glycan array binding signal (z-score within array); higher = stronger binding
# Settings in all cases: glycan notation: IUPAC condensed, linker removed
# [1] = target: Man(a1-2)Man(a1-3)[Man(a1-2)Man(a1-6)]Man
# Procedure, shortened: (§1)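 The binding signal is a Z-score computed within each array. Data were drawn from 3228 arrays in the Consortium for Functional Glycomics database, restricted to those with a known protein sequence. Scores were averaged over arrays of the same protein sequence at different concentrations or buffers, and over linkers, and negative values can be taken as non-binding.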
# [2] = target: Man(a1-2)Man(a1-3)[Man(a1-2)Man(a1-6)]Man(a1-6)[Man(a1-2)Man(a1-2)Man(a1-3)]Man
# Procedure, shortened: as §1
# [3] = target: Man(a1-2)Man(a1-3)[Man(a1-2)Man(a1-6)]Man(a1-6)[Man(a1-2)Man(a1-2)Man(a1-3)]Man(b1-4)GlcNAc(b1-4)GlcNAc
# Procedure, shortened: as §1
# [4] = target: Man(a1-2)Man(a1-3)[Man(a1-6)]Man(a1-6)[Man(a1-2)Man(a1-3)]Man(b1-4)GlcNAc(b1-4)GlcNAc
# Procedure, shortened: as §1
# [5] = target: Man(a1-2)Man(a1-6)[Man(a1-3)]Man(a1-6)[Man(a1-2)Man(a1-2)Man(a1-3)]Man
# Procedure, shortened: as §1
# [6] = target: Man(a1-2)Man(a1-6)[Man(a1-3)]Man(a1-6)[Man(a1-2)Man(a1-2)Man(a1-3)]Man(b1-4)GlcNAc(b1-4)GlcNAc
# Procedure, shortened: as §1
# Man(a1-3)[Man(a1-6)]Man = target: Man(a1-3)[Man(a1-6)]Man
# Procedure, shortened: as §1
# [7] = target: Man(a1-3)[Man(a1-6)]Man(a1-6)[Man(a1-2)Man(a1-3)]Man(b1-4)GlcNAc(b1-4)GlcNAc
# Procedure, shortened: as §1
# [8] = target: Man(a1-3)[Man(a1-6)]Man(a1-6)[Man(a1-3)]Man
# Procedure, shortened: as §1
# [9] = target: Man(a1-3)[Man(a1-6)]Man(a1-6)[Man(a1-3)]Man(b1-4)GlcNAc(b1-4)GlcNAc
# Procedure, shortened: as §1
# [10] = target: Man(a1-3)[Man(a1-6)]Man(b1-4)GlcNAc(b1-4)GlcNAc
# Procedure, shortened: as §1
# [11] = target: Man(a1-3)[Man(a1-6)]Man(b1-4)GlcNAc(b1-4)[Fuc(a1-6)]GlcNAc
# Procedure, shortened: as §1
# Man(a1-6)Man = target: Man(a1-6)Man
# Procedure, shortened: as §1
# Man(b1-4)GlcNAc = target: Man(b1-4)GlcNAc
# Procedure, shortened: as §1
# MurNAc(b1-4)GlcNAc = target: MurNAc(b1-4)GlcNAc
# Procedure, shortened: as §1
# Neu5Ac(a2-3)Gal = target: Neu5Ac(a2-3)Gal
# Procedure, shortened: as §1
# [12] = target: Neu5Ac(a2-3)Gal(b1-3)GalNAc
# Procedure, shortened: as §1
# [13] = target: Neu5Ac(a2-3)Gal(b1-3)GalNAc(b1-3)Gal(a1-4)Gal(b1-4)Glc
# Procedure, shortened: as §1
# [14] = target: Neu5Ac(a2-3)Gal(b1-3)GalNAc(b1-4)Gal(b1-4)Glc
# Procedure, shortened: as §1
# [15] = target: Neu5Ac(a2-3)Gal(b1-3)GalNAc(b1-4)[Neu5Ac(a2-3)]Gal(b1-4)Glc
# Procedure, shortened: as §1
# [16] = target: Neu5Ac(a2-3)Gal(b1-3)GalNAc(b1-4)[Neu5Ac(a2-8)Neu5Ac(a2-3)]Gal(b1-4)Glc
# Procedure, shortened: as §1
# [17] = target: Neu5Ac(a2-3)Gal(b1-3)GalNAc6S
# Procedure, shortened: as §1
# [18] = target: Neu5Ac(a2-3)Gal(b1-3)GlcNAc
# Procedure, shortened: as §1
# [19] = target: Neu5Ac(a2-3)Gal(b1-3)GlcNAc(b1-2)Man
# Procedure, shortened: as §1
# [20] = target: Neu5Ac(a2-3)Gal(b1-3)GlcNAc(b1-2)Man(a1-3)[GlcNAc(b1-4)][Neu5Ac(a2-3)Gal(b1-3)GlcNAc(b1-2)Man(a1-6)]Man(b1-4)GlcNAc(b1-4)GlcNAc
# Procedure, shortened: as §1
# [21] = target: Neu5Ac(a2-3)Gal(b1-3)GlcNAc(b1-2)Man(a1-3)[Neu5Ac(a2-3)Gal(b1-3)GlcNAc(b1-2)Man(a1-6)]Man(b1-4)GlcNAc(b1-4)GlcNAc
# Procedure, shortened: as §1
# [22] = target: Neu5Ac(a2-3)Gal(b1-3)GlcNAc(b1-2)[Neu5Ac(a2-3)Gal(b1-3)GlcNAc(b1-4)]Man(a1-6)[Neu5Ac(a2-3)Gal(b1-3)GlcNAc(b1-2)Man(a1-3)]Man(b1-4)GlcNAc(b1-4)GlcNAc
# Procedure, shortened: as §1
# [23] = target: Neu5Ac(a2-3)Gal(b1-3)GlcNAc(b1-3)Gal(b1-3)GlcNAc
# Procedure, shortened: as §1
# [24] = target: Neu5Ac(a2-3)Gal(b1-3)GlcNAc(b1-3)Gal(b1-4)GlcNAc
# Procedure, shortened: as §1
# [25] = target: Neu5Ac(a2-3)Gal(b1-3)GlcNAc(b1-3)GalNAc
# Procedure, shortened: as §1
binder,measurement,setting,value
"BT4246 (Bacteroides thetaiotaomicron), Q89ZX5 (protein) MGSSHHHHHHENLYFQGHMASDYLDVVPPEQPNIDDAMSSPTRALGFLYSCYGGVSTDLPSAYLGEINSTTDEYVLPYSWNTDGYWGAYAFNTASSTNQDWLWGTTYQYIGQCYLFLQKLENAGSDIASDAEKEQWRAECQFLVAYYHFATLRRYGPIPITDSYIPMDTPTSEYNGRFHFDYCVDWIANQLDEAAKVLPANRTVTNEWGRATSTIAKAVKARLLLYAASPLWNGSFPYPNWQNENFETPGYGKALVSNTYDKSKWERALAACQEALTLATTSGDRELYDDDEYYSRQSLNLPFVPGVADVEDNKEFLKNVMKMRYAVSTRESEGNKEIIWGLSNQFDFYSRYPLRILKKSDGTWHAGYSGVSPTLYTFEHFYTANGKLPEKDLDFTPSSEWFESAGISSREDIIKLNVGREPRFYAWMAFDGGDYGTKFAAGSPLKLEMRNSEMHGYNPSLFNRDHSVTGFLTQKFVDPVTEFYTAGGSTSGTSAPTILFRLAELYLNVAECHAALGNTQEAIDALNPVRERAGIPKLTLADITNNMTIKDWVHNERFVELWNEGHRFFDVRRWAEGAKYFGANKREGLNAEVQSPTFEEFNKRTTVDAPYVWENRMYLNPVFYNEVYKNPQMVQAPGY",glycan array binding signal (z-score),[1],0.5
same,glycan array binding signal (z-score),[2],0.173
same,glycan array binding signal (z-score),[3],-0.169
same,glycan array binding signal (z-score),[4],0.406
same,glycan array binding signal (z-score),[5],-1.24
same,glycan array binding signal (z-score),[6],1.59
same,glycan array binding signal (z-score),Man(a1-3)[Man(a1-6)]Man,0.477
same,glycan array binding signal (z-score),[7],-0.545
same,glycan array binding signal (z-score),[8],3.62
same,glycan array binding signal (z-score),[9],-0.272
same,glycan array binding signal (z-score),[10],-0.585
same,glycan array binding signal (z-score),[11],-0.828
same,glycan array binding signal (z-score),Man(a1-6)Man,1.9
same,glycan array binding signal (z-score),Man(b1-4)GlcNAc,1.48
same,glycan array binding signal (z-score),MurNAc(b1-4)GlcNAc,-0.881
same,glycan array binding signal (z-score),Neu5Ac(a2-3)Gal,-0.128
same,glycan array binding signal (z-score),[12],-0.605
same,glycan array binding signal (z-score),[13],0.009
same,glycan array binding signal (z-score),[14],0.064
same,glycan array binding signal (z-score),[15],-1.5
same,glycan array binding signal (z-score),[16],-0.003
same,glycan array binding signal (z-score),[17],-0.19
same,glycan array binding signal (z-score),[18],0.325
same,glycan array binding signal (z-score),[19],0.585
same,glycan array binding signal (z-score),[20],-0.625
same,glycan array binding signal (z-score),[21],-0.445
same,glycan array binding signal (z-score),[22],1.75
same,glycan array binding signal (z-score),[23],-0.454
same,glycan array binding signal (z-score),[24],1.07
same,glycan array binding signal (z-score),[25],0.321

# A different layout for some results above.
binder	measurement	setting	value
BT4246 (Bacteroides thetaiotaomicron), Q89ZX5 (protein) MGSSHHHHHHENLYFQGHMASDYLDVVPPEQPNIDDAMSSPTRALGFLYSCYGGVSTDLPSAYLGEINSTTDEYVLPYSWNTDGYWGAYAFNTASSTNQDWLWGTTYQYIGQCYLFLQKLENAGSDIASDAEKEQWRAECQFLVAYYHFATLRRYGPIPITDSYIPMDTPTSEYNGRFHFDYCVDWIANQLDEAAKVLPANRTVTNEWGRATSTIAKAVKARLLLYAASPLWNGSFPYPNWQNENFETPGYGKALVSNTYDKSKWERALAACQEALTLATTSGDRELYDDDEYYSRQSLNLPFVPGVADVEDNKEFLKNVMKMRYAVSTRESEGNKEIIWGLSNQFDFYSRYPLRILKKSDGTWHAGYSGVSPTLYTFEHFYTANGKLPEKDLDFTPSSEWFESAGISSREDIIKLNVGREPRFYAWMAFDGGDYGTKFAAGSPLKLEMRNSEMHGYNPSLFNRDHSVTGFLTQKFVDPVTEFYTAGGSTSGTSAPTILFRLAELYLNVAECHAALGNTQEAIDALNPVRERAGIPKLTLADITNNMTIKDWVHNERFVELWNEGHRFFDVRRWAEGAKYFGANKREGLNAEVQSPTFEEFNKRTTVDAPYVWENRMYLNPVFYNEVYKNPQMVQAPGY	glycan array binding signal (z-score)	[13]	0.009
same	glycan array binding signal (z-score)	[14]	0.064
